The supplement of paper PMC10849652
The list shows a part of the results.

Protein sequences, listed by entry. Tags and fused reporters are not part of them. Lines headed by an entry give the natural chain unless they say otherwise; changes in a name come on top.
UniProt Q9P2D6: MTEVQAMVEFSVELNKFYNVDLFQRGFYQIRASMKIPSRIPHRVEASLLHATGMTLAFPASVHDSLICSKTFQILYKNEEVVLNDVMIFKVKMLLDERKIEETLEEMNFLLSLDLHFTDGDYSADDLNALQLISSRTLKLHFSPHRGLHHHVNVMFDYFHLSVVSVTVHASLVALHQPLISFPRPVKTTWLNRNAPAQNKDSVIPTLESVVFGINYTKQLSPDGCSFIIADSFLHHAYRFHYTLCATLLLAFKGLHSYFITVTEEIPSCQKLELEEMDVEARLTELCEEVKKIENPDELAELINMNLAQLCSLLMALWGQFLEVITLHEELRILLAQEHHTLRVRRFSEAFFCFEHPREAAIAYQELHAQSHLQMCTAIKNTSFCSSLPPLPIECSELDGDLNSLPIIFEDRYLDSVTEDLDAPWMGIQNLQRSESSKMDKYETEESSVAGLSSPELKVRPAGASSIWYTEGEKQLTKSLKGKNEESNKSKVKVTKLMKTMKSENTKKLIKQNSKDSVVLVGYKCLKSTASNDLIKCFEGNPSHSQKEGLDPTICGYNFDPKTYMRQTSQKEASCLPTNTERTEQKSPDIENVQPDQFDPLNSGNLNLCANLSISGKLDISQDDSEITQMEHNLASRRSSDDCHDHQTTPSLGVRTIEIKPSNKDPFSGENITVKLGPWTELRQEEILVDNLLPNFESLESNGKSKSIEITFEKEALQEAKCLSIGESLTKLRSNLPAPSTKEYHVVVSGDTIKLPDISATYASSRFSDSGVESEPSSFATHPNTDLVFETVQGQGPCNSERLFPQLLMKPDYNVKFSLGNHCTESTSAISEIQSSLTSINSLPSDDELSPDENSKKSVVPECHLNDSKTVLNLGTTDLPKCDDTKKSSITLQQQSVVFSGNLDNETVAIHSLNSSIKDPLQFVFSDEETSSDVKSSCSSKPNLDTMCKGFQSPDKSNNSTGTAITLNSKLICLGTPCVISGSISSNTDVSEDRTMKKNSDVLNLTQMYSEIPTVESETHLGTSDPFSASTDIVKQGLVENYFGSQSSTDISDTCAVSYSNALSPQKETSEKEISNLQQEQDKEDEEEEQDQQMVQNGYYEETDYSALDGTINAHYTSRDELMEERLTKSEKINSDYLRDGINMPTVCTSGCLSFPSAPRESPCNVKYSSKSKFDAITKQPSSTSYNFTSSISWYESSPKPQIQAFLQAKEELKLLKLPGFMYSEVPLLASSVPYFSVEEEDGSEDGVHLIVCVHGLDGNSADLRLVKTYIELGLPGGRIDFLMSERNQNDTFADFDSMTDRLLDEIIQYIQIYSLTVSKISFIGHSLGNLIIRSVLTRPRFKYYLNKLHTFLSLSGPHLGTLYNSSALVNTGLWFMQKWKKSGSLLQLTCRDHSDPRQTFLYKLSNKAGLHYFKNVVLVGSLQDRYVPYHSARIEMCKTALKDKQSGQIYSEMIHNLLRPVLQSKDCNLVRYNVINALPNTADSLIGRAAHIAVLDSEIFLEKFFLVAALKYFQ
UniProt Q01780: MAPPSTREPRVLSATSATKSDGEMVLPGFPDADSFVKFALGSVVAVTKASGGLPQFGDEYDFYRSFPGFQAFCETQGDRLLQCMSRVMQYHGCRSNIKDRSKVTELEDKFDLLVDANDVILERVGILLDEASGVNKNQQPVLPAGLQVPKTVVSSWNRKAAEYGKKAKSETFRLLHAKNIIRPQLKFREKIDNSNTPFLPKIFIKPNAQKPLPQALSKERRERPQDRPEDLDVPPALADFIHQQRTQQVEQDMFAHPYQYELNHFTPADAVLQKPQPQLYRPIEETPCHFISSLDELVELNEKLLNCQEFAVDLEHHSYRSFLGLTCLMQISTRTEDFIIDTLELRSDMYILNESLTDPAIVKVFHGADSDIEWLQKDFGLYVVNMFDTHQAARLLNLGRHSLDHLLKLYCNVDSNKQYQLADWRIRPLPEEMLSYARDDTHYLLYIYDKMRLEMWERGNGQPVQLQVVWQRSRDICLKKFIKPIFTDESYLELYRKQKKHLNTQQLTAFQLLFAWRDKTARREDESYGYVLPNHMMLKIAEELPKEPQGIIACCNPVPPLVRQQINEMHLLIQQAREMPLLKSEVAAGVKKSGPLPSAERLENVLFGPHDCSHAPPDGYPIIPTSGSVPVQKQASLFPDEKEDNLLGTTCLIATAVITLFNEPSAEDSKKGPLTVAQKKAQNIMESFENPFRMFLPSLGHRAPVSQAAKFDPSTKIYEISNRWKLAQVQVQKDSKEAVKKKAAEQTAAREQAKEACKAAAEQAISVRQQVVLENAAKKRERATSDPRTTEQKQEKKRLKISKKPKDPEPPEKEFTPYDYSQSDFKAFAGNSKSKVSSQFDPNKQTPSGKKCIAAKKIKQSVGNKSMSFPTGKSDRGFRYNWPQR
UniProt P07992: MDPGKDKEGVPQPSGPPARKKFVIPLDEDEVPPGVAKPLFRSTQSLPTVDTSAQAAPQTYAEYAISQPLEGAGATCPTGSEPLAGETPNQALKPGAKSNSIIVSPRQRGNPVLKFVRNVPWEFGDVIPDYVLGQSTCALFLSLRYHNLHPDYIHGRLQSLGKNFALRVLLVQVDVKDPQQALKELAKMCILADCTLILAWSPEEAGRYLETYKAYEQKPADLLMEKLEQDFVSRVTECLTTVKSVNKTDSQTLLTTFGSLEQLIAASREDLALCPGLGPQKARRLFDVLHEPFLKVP
UniProt P00742, whole entry, looked up: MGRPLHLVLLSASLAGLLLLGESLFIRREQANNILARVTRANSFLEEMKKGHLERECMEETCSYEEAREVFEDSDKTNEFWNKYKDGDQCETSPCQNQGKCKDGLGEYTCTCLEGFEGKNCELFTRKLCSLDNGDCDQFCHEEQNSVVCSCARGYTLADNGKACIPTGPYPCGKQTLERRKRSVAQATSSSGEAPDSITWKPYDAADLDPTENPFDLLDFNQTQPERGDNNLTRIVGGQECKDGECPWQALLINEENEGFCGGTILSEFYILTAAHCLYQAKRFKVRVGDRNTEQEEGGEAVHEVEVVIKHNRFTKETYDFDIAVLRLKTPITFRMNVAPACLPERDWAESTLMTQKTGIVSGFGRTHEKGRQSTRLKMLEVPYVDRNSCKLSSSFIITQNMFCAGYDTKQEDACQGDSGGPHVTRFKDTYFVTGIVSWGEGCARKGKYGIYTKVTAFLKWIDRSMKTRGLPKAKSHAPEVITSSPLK
UniProt Q8N612: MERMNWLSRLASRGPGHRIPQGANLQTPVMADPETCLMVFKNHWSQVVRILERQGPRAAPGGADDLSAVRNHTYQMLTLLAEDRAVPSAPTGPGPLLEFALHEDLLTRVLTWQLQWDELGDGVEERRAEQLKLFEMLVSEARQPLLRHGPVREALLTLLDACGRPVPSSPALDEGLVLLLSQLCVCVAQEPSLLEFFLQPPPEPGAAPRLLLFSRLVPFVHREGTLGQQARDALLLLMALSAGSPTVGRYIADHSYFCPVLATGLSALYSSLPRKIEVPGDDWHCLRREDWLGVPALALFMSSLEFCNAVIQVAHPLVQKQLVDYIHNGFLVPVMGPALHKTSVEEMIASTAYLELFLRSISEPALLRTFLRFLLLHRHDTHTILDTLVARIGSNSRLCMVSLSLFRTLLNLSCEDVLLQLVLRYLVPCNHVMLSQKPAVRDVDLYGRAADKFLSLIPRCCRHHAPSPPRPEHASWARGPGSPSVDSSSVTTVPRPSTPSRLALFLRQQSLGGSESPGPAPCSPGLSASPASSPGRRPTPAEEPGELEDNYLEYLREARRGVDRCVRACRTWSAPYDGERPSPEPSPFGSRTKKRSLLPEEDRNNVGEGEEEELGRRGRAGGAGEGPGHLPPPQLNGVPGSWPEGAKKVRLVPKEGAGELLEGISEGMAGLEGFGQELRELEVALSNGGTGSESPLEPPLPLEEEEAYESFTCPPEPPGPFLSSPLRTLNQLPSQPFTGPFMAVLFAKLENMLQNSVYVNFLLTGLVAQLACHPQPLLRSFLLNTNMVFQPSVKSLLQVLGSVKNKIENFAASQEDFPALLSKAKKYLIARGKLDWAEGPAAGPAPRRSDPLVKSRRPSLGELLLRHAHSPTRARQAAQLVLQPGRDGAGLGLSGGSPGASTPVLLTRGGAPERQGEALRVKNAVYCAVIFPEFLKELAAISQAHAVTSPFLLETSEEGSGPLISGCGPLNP
UniProt O43491, whole entry, looked up: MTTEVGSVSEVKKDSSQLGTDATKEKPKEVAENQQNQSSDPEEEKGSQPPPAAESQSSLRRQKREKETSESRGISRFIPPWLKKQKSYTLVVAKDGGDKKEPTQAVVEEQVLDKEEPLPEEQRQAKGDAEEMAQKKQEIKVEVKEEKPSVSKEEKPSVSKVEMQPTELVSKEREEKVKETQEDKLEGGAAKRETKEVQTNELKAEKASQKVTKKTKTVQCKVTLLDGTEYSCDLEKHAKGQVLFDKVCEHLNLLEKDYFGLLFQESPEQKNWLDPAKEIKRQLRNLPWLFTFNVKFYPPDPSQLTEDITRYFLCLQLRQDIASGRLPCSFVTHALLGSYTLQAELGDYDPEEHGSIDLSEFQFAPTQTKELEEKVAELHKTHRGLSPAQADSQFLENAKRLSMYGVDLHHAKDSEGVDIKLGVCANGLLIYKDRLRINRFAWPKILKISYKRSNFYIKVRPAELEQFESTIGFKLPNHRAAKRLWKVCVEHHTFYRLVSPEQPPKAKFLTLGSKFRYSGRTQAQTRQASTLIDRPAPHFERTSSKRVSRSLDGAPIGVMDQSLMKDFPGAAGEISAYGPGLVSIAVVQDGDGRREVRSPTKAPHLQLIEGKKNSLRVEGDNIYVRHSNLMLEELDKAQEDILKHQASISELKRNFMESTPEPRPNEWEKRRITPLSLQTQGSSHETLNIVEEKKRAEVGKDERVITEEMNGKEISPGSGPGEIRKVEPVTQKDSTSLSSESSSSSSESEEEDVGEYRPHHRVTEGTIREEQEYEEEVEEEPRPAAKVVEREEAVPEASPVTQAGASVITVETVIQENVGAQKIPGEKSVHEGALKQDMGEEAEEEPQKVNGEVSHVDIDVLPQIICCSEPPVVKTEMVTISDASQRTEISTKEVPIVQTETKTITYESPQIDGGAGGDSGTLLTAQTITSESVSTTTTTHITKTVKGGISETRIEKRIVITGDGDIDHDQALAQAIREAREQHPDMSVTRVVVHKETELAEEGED
UniProt Q9NSI2: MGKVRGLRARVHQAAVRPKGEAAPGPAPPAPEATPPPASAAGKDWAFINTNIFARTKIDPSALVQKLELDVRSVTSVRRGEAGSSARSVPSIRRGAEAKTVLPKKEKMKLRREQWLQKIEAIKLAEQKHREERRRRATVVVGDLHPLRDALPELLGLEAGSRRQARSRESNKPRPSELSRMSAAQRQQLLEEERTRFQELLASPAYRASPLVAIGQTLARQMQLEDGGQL
UniProt P50548: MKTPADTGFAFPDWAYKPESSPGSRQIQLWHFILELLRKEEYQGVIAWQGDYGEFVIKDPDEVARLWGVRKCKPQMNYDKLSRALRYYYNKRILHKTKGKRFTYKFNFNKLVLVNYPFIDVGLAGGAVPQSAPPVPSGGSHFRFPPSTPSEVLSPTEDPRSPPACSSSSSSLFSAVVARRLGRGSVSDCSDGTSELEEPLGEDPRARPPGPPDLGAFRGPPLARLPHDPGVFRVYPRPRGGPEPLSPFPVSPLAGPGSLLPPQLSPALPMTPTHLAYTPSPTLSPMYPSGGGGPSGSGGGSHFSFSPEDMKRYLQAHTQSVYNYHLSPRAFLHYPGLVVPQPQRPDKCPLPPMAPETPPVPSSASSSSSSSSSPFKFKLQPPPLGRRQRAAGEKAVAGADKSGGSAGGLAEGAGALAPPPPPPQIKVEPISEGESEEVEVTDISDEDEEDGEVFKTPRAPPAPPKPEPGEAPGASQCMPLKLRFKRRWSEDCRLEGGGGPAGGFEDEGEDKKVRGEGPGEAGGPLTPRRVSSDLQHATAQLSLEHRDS

Columns and labels:
Test in all cases: log2 fold change, soluble protein after heating vs DMSO (PISA); higher = thermal stabilisation; K562 cells, 10 uM, 30 min; active = over 0.2 and 3.5 SD of the protein, either way, in both replicates (recomputed)
[1] = compound: CS(=O)(=O)c1ccc(-c2cnc(N)c(C(=O)Nc3ccccc3)n2)cc1
Outline: (§1)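 Soluble protein was quantified by TMTpro 16plex LC-MS/MS after channel sums were equalised. It was obtained as the supernatant after 21,000xg for 90 min from pooled aliquots of K562 cells (2×10^6 cells/mL, 10 μM compound, 30 min) heated for 3 min across 48°C-58°C and extracted in PBS with 0.5% NP-40 at 4°C. Thermal stability values are relative to control samples and come from duplicates. They are given as log2 fold changes.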

crizotinib = compound: C[C@@H](Oc1cc(-c2cnn(C3CCNCC3)c2)cnc1N)c1c(Cl)ccc(F)c1Cl [crizotinib]
Outline: as §1

[2] = compound: C[C@@H]1COCCN1C2=NC(=NC(=C2)C3(CC3)S(=O)(=O)C)C4=C5C=CNC5=CC=C4
Outline: as §1

doramapimod = compound: Cc1ccc(-n2nc(C(C)(C)C)cc2NC(=O)Nc2ccc(OCCN3CCOCC3)c3ccccc23)cc1 [doramapimod]
Outline: as §1

duvelisib = compound: C[C@H](Nc1ncnc2nc[nH]c12)c1cc2cccc(Cl)c2c(=O)n1-c1ccccc1 [duvelisib]
Outline: as §1

[3] = compound: Cc1cc(SCc2sc(-c3ccc(C(F)(F)F)cc3)nc2C)ccc1OCC(=O)O
Outline: as §1

bafetinib = compound: Cc1ccc(NC(=O)c2ccc(CN3CC[C@H](N(C)C)C3)c(C(F)(F)F)c2)cc1Nc1nccc(-c2cncnc2)n1 [bafetinib]
Outline: as §1

nilotinib = compound: Cc1cn(-c2cc(NC(=O)c3ccc(C)c(Nc4nccc(-c5cccnc5)n4)c3)cc(C(F)(F)F)c2)cn1 [nilotinib]
Outline: as §1

[4] = compound: Cc1nc(Nc2n[nH]c3c2CN(C(=O)N[C@H](CN(C)C)c2ccccc2)C3(C)C)c2sccc2n1
Outline: as §1

dasatinib = compound: Cc1nc(Nc2ncc(C(=O)Nc3c(C)cccc3Cl)s2)cc(N2CCN(CCO)CC2)n1 [dasatinib]
Outline: as §1

[5] = compound: Cc1ncc(-c2ccnc(Nc3ccc(S(C)(=O)=O)cc3)n2)n1C(C)C
Outline: as §1

tipifarnib = compound: Cn1cncc1[C@@](N)(c1ccc(Cl)cc1)c1ccc2c(c1)c(-c1cccc(Cl)c1)cc(=O)n2C [tipifarnib]
Outline: as §1

mubritinib = compound: FC(F)(F)c1ccc(/C=C/c2nc(COc3ccc(CCCCn4ccnn4)cc3)co2)cc1 [mubritinib]
Outline: as §1

gandotinib = compound: Cc1cc(Nc2cc(CN3CCOCC3)c3nc(C)c(Cc4ccc(Cl)cc4F)n3n2)n[nH]1 [gandotinib]
Outline: as §1

ispinesib = compound: Cc1ccc(C(=O)N(CCCN)[C@@H](c2nc3cc(Cl)ccc3c(=O)n2Cc2ccccc2)C(C)C)cc1 [ispinesib]
Outline: as §1

[6] = compound: Cc1cccc(CC(=O)N2CCc3c2ccc(-c2cn(C)c4ncnc(N)c24)c3F)n1
Outline: as §1

[7] = compound: Cn1cc(-c2ccc3nnc(C(F)(F)c4ccc5ncccc5c4)n3n2)cn1
Outline: as §1

[8] = compound: C[C@H](C1=CC=C(C=C1)C(=O)NC2=C3C=CNC3=NC=C2)N
Outline: as §1

[9] = compound: Cn1cc(-c2ccc3c(c2)CCN3C(=O)Cc2cccc(C(F)(F)F)c2)c2c(N)ncnc21
Outline: as §1

tozasertib = compound: Cc1cc(Nc2cc(N3CCN(C)CC3)nc(Sc3ccc(NC(=O)C4CC4)cc3)n2)n[nH]1 [tozasertib]
Outline: as §1

Measured: log2 fold change

EPS15L1 (UniProt M0QY01)
inactive: [1] -0.037 | crizotinib -0.088 | [2] -0.165 | doramapimod -0.042

ESYT2 (UniProt H7BXI1)
inactive: [1] 0.027 | [2] -0.324 | duvelisib -0.149 | [3] 0.009 | bafetinib 0.054 | nilotinib 0.051 | [4] -0.136 | dasatinib -0.019 | [5] 0.043 | tipifarnib 0.149 | mubritinib 0.186

ESF1 (UniProt Q9H501)
inactive: [1] 0.095 | duvelisib -0.142 | gandotinib -0.075 | [3] -0.099 | ispinesib -0.176 | bafetinib 0.068 | [6] -0.168 | dasatinib 0.053 | [7] -0.234

FAM135A (UniProt Q9P2D6)
inactive: [1] 0.087 | [2] 0.038 | nilotinib 0.054 | [4] -0.138 | [5] -0.054

2 entries drawn at random from those above, as already listed:
ESF1 (UniProt Q9H501)
inactive: [1] 0.095 | duvelisib -0.142 | gandotinib -0.075 | [3] -0.099 | ispinesib -0.176 | bafetinib 0.068 | [6] -0.168 | dasatinib 0.053 | [7] -0.234

EPS15L1 (UniProt M0QY01)
inactive: [1] -0.037 | crizotinib -0.088 | [2] -0.165 | doramapimod -0.042

Next results

EXOSC10 (UniProt Q01780)
active: bafetinib -0.63
inactive: [1] 0.126 | crizotinib 0.043 | [2] 0.063 | [8] -0.015 | gandotinib 0.527 | [3] -0.138 | doramapimod 0.097 | ispinesib -0.441 | [6] 0 | dasatinib 0.017 | [9] 0.152 | [7] 0.251 | tipifarnib 0.195 | mubritinib 0.046

ERCC1 isoform 3 (UniProt P07992)
inactive: [1] 0.022 | [8] 0.049 | duvelisib 0.211 | [3] 0.019 | ispinesib 0.09 | dasatinib -0.191 | [9] 0.191 | [7] 0 | tipifarnib -0.211

F10 (UniProt P00742)
inactive: [1] 0.023 | crizotinib 0.288 | [2] 0.042 | tozasertib 0.081 | doramapimod 0.037 | ispinesib 0.13 | bafetinib -0.081 | nilotinib 0.145 | [4] -0.135 | [5] 0.289 | [7] -0.086 | mubritinib -0.196

FAM160A2 isoform 2 (UniProt Q8N612)
inactive: crizotinib -0.004 | [2] 0.042 | [8] -0.041 | gandotinib 0.115 | [3] 0.212 | doramapimod -0.003 | ispinesib -0.192 | bafetinib -0.208 | [6] -0.145 | nilotinib -0.085 | [4] 0.192 | dasatinib -0.186 | [5] -0.101 | [9] -0.083 | [7] 0.046 | mubritinib 0.093

EPB41L2 isoform 4 (UniProt O43491)
inactive: [1] -0.119 | crizotinib -0.065 | [2] 0.423 | doramapimod 0.129 | bafetinib 0.195 | nilotinib -0.118 | [4] 0.098 | [5] -0.127 | tipifarnib -0.235 | mubritinib -0.159

EZH2 isoform 2 (UniProt Q15910)
inactive: [1] -0.012 | crizotinib -0.196 | [2] -0.039 | [8] 0.072 | [3] 0.279 | doramapimod 0.095 | bafetinib 0.146 | dasatinib -0.113 | [9] 0.055 | tipifarnib -0.021 | mubritinib -0.097

FAM207A (UniProt Q9NSI2)
inactive: [1] 0.009 | crizotinib 0.075 | [2] 0.08 | gandotinib -0.039 | [3] -0.098 | doramapimod 0.101 | ispinesib -0.077 | bafetinib 0.002 | [6] 0.076 | nilotinib -0.071 | [4] -0.087 | dasatinib 0.006 | [5] -0.059 | [7] -0.127 | tipifarnib 0.003 | mubritinib -0.238

ERF (UniProt P50548)
active: tozasertib -1.2
inactive: [1] 0.173 | [2] -0.05 | gandotinib -0.29 | [6] 0.194
